# Library screening results

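Whole-cell assay for inhibitors of Mycobacterium tuberculosis growth, labelled Cornell in the record; the read-out is not stated. The concentration is filed as 10 mM, unlikely as a test dose, so the dose is not known. Higher means stronger inhibition (inferred from two other growth screens of the library). Size under these conditions: about 53,000 compounds, about 900 of them at 50% or above in at least one test.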

Each number is a percent effect as filed. The controls that fix the scale are not given in the record; negative values are as filed. Compounds were drawn at random from those tested, without regard to their results.

compound | Percent Effect
Cc1nnc2n1CCN(C(=O)c1cn(-c3ccccc3)nn1)C2 | 13.36%
CN(C)S(=O)(=O)N1CCC(Oc2cccnn2)CC1 | 12.29%
NC(=O)[C@@H]1CCCN1C(=O)c1cn(C/C=C/c2ccccc2)nn1 | 12.27%
O=C(Cn1cnc2sccc2c1=O)NCCCc1nnc2ccccn12 | 7.039%
COc1c(CNCc2cccnc2N2CCCCC2)c(C)nn1C | 5.186%
CCO[C@H]1C[C@@H](O)C12CCN(C(=O)CC(F)(F)F)CC2 | -74.9%
Cc1nsc(NC2CCOC3(CCCCC3)C2)n1 (stereo not drawn) | 23.33%
Cc1cccc(NC(=O)C2CSc3ncc(C)c(=O)n3C2)n1 (stereo not drawn) | 30.45%
CCn1nc(C)c2c1cnn2CC(=O)NC(C)c1cccc(OC)c1 (stereo not drawn) | -21.48%
Cc1cc(N[C@H](CO)c2ccccc2)n2nc(C)cc2n1 | 0.594%
N#CC1(NC(=O)c2ccc(-c3nc(C4CC4)n[nH]3)cc2)CCC1 | -9.992%
CCCc1nnc(N2CCN(c3ccccc3OCC)CC2)o1 | 24.59%
Cc1ccc(CNC(=O)CN2CCN(CC(O)c3ccco3)CC2)cc1.Cl.Cl (stereo not drawn) | 7.278%
CCOc1cc(Cl)ccc1CNC(=O)N(C)CC(C)(C)O | -2.511%
CC(C)(O)CCc1cccc(C(=O)N2CCC[C@H]2C(N)=O)c1 | -22.49%
COc1ncc(C)cc1NC(=O)COc1ccccc1F | 10.99%
CN1CCN2CCN(C(=O)c3cc4ncc(CCO)cn4n3)CC2C1 (stereo not drawn) | -2.458%
CC(C)(C)OC(=O)NC1CCCN(Cc2cccc(O)c2)C1 (stereo not drawn) | -1.366%
[H][C@@]1([C@H](C)C(=O)O)CCc2c(C)cc(OCCC)c(C)c2C1 | -5.706%
O=C(CCN1C(=O)CCC1=O)Nc1ccc(OCC(F)(F)F)nc1 | 10.82%
O=C(COc1ccc(Cl)cc1)NCc1nncn1C1CC1 | 14.68%
CCS(=O)(=O)NC(CCSC)C(=O)Nc1cc(F)ccc1C (stereo not drawn) | -35.32%
Cc1nc(CN2CCc3nn(C)c(=O)cc3C2)oc1C | 7.216%
Cc1ccc(NC2CCN(C(=O)CCOCC(F)(F)F)CC2)nn1 | -48.24%
CCNC(=O)[C@@H]1C[C@@H](NC(=O)c2ccc(C#N)cc2)CN1CCCSC | -8.142%
CCc1ccc(C(=O)O)cc1S(=O)(=O)Nc1ccc(F)c(C#N)c1 | 20.8%
c1cc2c(cc1CN(Cc1nc(C3CC3)no1)C1CCCC1)OCO2 | 26.38%
CN(C)C(C(=O)NCC(F)(F)F)c1cccc(F)c1 (stereo not drawn) | 12.41%
CCCc1nnc(N2CCN(c3ccccc3Cl)CC2)o1 | 51.83%
CCCn1cnc2c(cnn2-c2cccc(C)c2C)c1=O | -11.41%
CCn1ncc2[nH]c(-c3cc(OC)c(OC)cc3OC)nc21 | -28.99%
CNC(=O)C1CCN(c2ncnc3c2CCN(C(=O)C2CC2)C3)C1 (stereo not drawn) | -15.03%
NC(=O)[C@H]1CCCN(c2nccc(-c3ccncc3)n2)C1 | 4.371%
CCn1cc(CN(C)C(=O)c2cccc(CCC(C)(C)O)c2)cn1 | 13.9%
O=C(O)C(F)(F)F.O=C(O)C(F)(F)F.[H][C@@]12COC[C@H](C(=O)Nc3cccnc3)[C@]1([H])CN(Cc1cnn(C)c1)C2 | -7.87%
CCOc1cc(=O)n2c(c1C(=O)OCc1ccc(C)cc1)CCCC2 | 3.121%
Cn1ccnc1CN1C[C@@H](CN2CCCCC2)[C@@H](CO)C1 | 12.74%
Cc1cccc(C(=O)N2CCn3cc(CNC(=O)CC4CC4)nc3C2)n1 | 22.23%
CN(Cc1ccccc1)S(=O)(=O)N1C[C@@H](C(=O)O)[C@H](C2CC2)C1 | -0.2131%
COCCN(Cc1coc(-c2ccc(OC)cc2)n1)C1CC1 | 44.67%
CN(C)c1ncnc2c1CCN(CC1CCCC1)CC2.O=C(O)C(F)(F)F | -1.825%
CC(C)(CO)CCCNC(=O)NC1(C)Cc2ccccc2C1 | 28.21%
CCN1CCCC12CCN(C(=O)c1ccsc1)CC2.O=C(O)C(F)(F)F | 19.27%
COc1ccccc1CN(C)C(=O)NCc1c(C)cc(C)[nH]c1=O | -46.43%
O=C(O)C(F)(F)F.[H][C@@]12CCN(c3cccnc3)C[C@]1([H])CN(C(=O)CC1CC1)C2 | 44.58%
CCN1CCN(S(=O)(=O)c2cc(C)c(C)cc2Br)CC1 | -0.1409%
Cc1oncc1C(=O)N1CCC2(CCN(Cc3ccccn3)C2=O)C1 (stereo not drawn) | 28.4%
O=C(Nc1cccc(Cl)c1)c1nn(C2CCS(=O)(=O)C2)c2c1CCCC2 (stereo not drawn) | 5.888%
CSCC(=O)NS(=O)(=O)c1ccc(C#N)c(C(F)(F)F)c1 | -29.62%
CCN(CC)c1ncnc2c1CCN(CC1CCOCC1)CC2.O=C(O)C(F)(F)F | -20.5%
Cc1nnc(CN(Cc2ccccc2Br)C2CC2)o1 | 42.91%
COCC(O)CN(C)c1cc(C(F)(F)F)nc(-c2cccnc2)n1 (stereo not drawn) | -5.392%
COc1ccc(CNC(=O)NC2CCN(CC3CCCC3)CC2)cn1 | 0.7517%
O=C(NCC1Cn2nnc(-c3ccsc3)c2CO1)c1ccc[nH]1 (stereo not drawn) | -55.41%
O=C(NCc1noc(C2CCCO2)n1)c1cn2ccsc2n1 (stereo not drawn) | -14.87%
CN1CCOC(C)(C(=O)N2CCSCC2)C1 (stereo not drawn) | -6.425%
O=C(O)CCCC(=O)N1CCC(c2noc3cc(F)ccc23)CC1 | 4.458%
CCOC(=O)N1[C@@H](c2ccco2)[C@@H](CO)C[C@]12CCCCNC2=O | 9.432%
CC(C)Oc1ccc(CSc2nnc(CN3CCCC3=O)o2)cc1 | 32.94%
Cc1cc2c(=O)n3c(nc2s1)CCN(Cc1cncn1C)CC3.Cl | 15.13%
[H][C@]12CC[C@@]3(N=C(C)NC3=O)[C@@]1([H])CN(C(=O)NCc1cccc(F)c1)C2 | -43.13%
c1nc2c(c(N3CCOC(Cn4cncn4)C3)n1)CCC2 (stereo not drawn) | 13.71%
CCc1n[nH]c(C2CN(C(=O)c3nc(C)ncc3Cl)CCO2)n1 (stereo not drawn) | 6.149%
Cc1csc(CNC(=O)NCC(O)c2ccc(F)cc2F)n1 (stereo not drawn) | -48.54%
CS(=O)(=O)N1CCN(Cc2csc(-c3ncccn3)n2)CC1 | -33.6%
CC(C)c1cc(C(=O)N2CCCC(c3cc(=O)nc4n3CCC4)C2)no1 (stereo not drawn) | 0.7241%
CC(c1nc(C2CC2)no1)N1CCC(NS(=O)(=O)c2cccs2)CC1 (stereo not drawn) | 19.72%
Cc1cc2[nH]c(=O)oc2cc1S(=O)(=O)N1CCC(N2CCCC2=O)CC1 | -4.018%
[H][C@@]12OCCN(C(=O)c3occc3C)[C@@]1([H])CC[C@H]2OCC1CCOCC1 | 11.58%
CC(NC(=O)NC1CCN(Cc2ccccn2)CC1)c1ccco1 (stereo not drawn) | -18.79%
CC(NC(=O)NCC1(c2ccc(F)cc2)CCCC1)c1nncn1C (stereo not drawn) | 8.049%
O=C(c1ccc(Br)o1)N1CCN(Cc2ccc(OC(F)(F)F)cc2)CC1 | 11%
CC(C)c1nnc2ccc(N3CCCC(C(=O)Nc4nccs4)C3)nn12 (stereo not drawn) | 14.07%
Cc1ccc(-c2noc(CN3CCC(c4ccn[nH]4)CC3)n2)cc1 | 21.37%
Cc1noc(C)c1S(=O)(=O)N1CCC(Oc2ccccn2)CC1 | -38.31%

Some entries from above, unchanged:

- Cc1cc2[nH]c(=O)oc2cc1S(=O)(=O)N1CCC(N2CCCC2=O)CC1 | -4.018%
- CC(C)(O)CCc1cccc(C(=O)N2CCC[C@H]2C(N)=O)c1 | -22.49%
- c1nc2c(c(N3CCOC(Cn4cncn4)C3)n1)CCC2 (stereo not drawn) | 13.71%
- O=C(O)CCCC(=O)N1CCC(c2noc3cc(F)ccc23)CC1 | 4.458%
- Cc1cc(N[C@H](CO)c2ccccc2)n2nc(C)cc2n1 | 0.594%
- CC(NC(=O)NCC1(c2ccc(F)cc2)CCCC1)c1nncn1C (stereo not drawn) | 8.049%
- CCn1nc(C)c2c1cnn2CC(=O)NC(C)c1cccc(OC)c1 (stereo not drawn) | -21.48%
- [H][C@@]1([C@H](C)C(=O)O)CCc2c(C)cc(OCCC)c(C)c2C1 | -5.706%
- O=C(c1ccc(Br)o1)N1CCN(Cc2ccc(OC(F)(F)F)cc2)CC1 | 11%

Source: ChEMBL document CHEMBL3988442, “University of Dundee, Small-Polar-MMV Screening Library” (2021).